For 104 sequences, z-score results are on record in PubChem BioAssay AID1347423 (Functional Genomics Laboratory (NCATS/FGL), 2020).

The whole screen tested about 52,000 sequences, of which about 210 (0.4%) were called active.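 The calls were made as follows: active = gene whose silencing raises cell survival under the drug, median off-target-corrected z-score across its silencing RNAs 2 or more; inactive = the rest.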 Some of the results follow.

This test can be described thus: Resistance to Poly (ADP-Ribose) Polymerase inhibitor: Gene Identification via Genome-wide siRNA Screen. Conditions: mouse BRCA2 R2336H ES cells, olaparib, CellTiter-Glo viability; hits give high values. Summed up: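 Genome-wide siRNA screen (3 siRNAs/gene, 20 nM) in mouse ES cells carrying hypomorphic BRCA2 R2336H; olaparib 500 nM added 48 h post-transfection, CellTiter-Glo viability 72 h later. Normalized to plate-median negative control; MAD z-scores, gene median, seed-adjusted.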
In the case of “GGAUGUAGAACUCUUAGCUTT against B930090D16Rik”, the z-score is inactive: 0.988.
Next, GGGACUUUUUUAGGUGAAUTT against Npl: inactive: 0.251.
Next, “GGAAUGGUAUCAGACUUCUTT against 9930022N03Rik”: inactive: -2.29; GGAACACCUCUGGAAAUCUTT against Pex12: inactive: 0.279; GCACGGAAGACUUACGAACTT against Cstf3: inactive: -0.602.
In the case of GGAUGUGACUCAGAUUGGGTT against Gm905 it was inactive: -0.149; in that of CUAGUUGACUUCUGGUACUTT against Olfr915, inactive: -0.538; in that of GGAUCUACGCAAGCAAGCATT against BC019806, inactive: -0.852.
With GCUAUAGUUACUAAACUACTT against Flt1, the z-score is inactive: 0.648.
Next, GGACAAAGUGGUUAUGUGGTT against Rims1: inactive: 0.332.
For the sequence GGAAAGGUCAAGCUGGUUCTT against Smbp, the z-score was inactive: 1.11.
Next, CGUUCAUAAUGACUCCGUUTT against Slc39a10: inactive: -0.872; GGCCUUUCUGGAGAAGAUGTT against Stfa3: inactive: -0.717.
Next, GCCAUUAAGAUCGCUUACUTT against Sepp1: inactive: -1.04.
In the case of CCUGGUUAAAGGUUAUCCATT against Commd7 it was inactive: -0.377; in that of GGAAUUUGUUCUCUUAUCGTT against Anapc1, inactive: -1.69; in that of GGUUACAGAAGAAUUAGAATT against Esrrbl1, inactive: 0.199.
Regarding GGGUUUAGCCAUCUGUUUCTT against AW049765, the z-score is inactive: -0.11.
In the case of GCUCAUGGAUACGUCACUATT against Map2k6 it was inactive: -0.0632; in that of CCAAUAACUCUAAAUAGGCTT against Trhr, inactive: -0.0695.
Next, GGAGCAGUAUAUCCUACAUTT against Olfr510: active: 0.104.
Next, GGACGUGUUCGGAAACCUATT against Psmc3ip: inactive: 1.65.
Consider GGAAGAAAAACUGAAGAGATT against Ctsr, for which the z-score was inactive: -0.608.
For GGAAAUGAGUCAACUGUACTT against Pappa, the z-score is inactive: -0.13.
Next, GCUAAUCCAGGACUGUUUATT against Trim14: inactive: -0.141.
Next, CGGUGCGAUCUCUCAAAGUTT against Cryba4: inactive: 2.14; GAAAACCUACCAGUGGGUGTT against Thsd6: inactive: 0.526.
On to “CGAACUCUGCUACUACACATT against 2210010B09Rik”, for which the z-score was inactive: -1.46.
For CCUGAUGGGUUACCUAUGCTT against Col25a1, the z-score was inactive: 0.174.
On to GCGUGUCCUAUAGCAUCUGTT against Ela1, for which the z-score is inactive: 2.9.
Next, GGAGAUACCGGGAAUCCAATT against Rpl19: inactive: -3.33; GGGUAAAUAUGUGGAAAACTT against Zfp503: inactive: -0.133.
Regarding GGGAAACAAAUUGUUUGCATT against Dyx1c1, the z-score was inactive: 0.357.
In the case of CCGCUUCCAUCACAACAGUTT against Zc3hav1 it was inactive: 0.887; in that of GGAAGGUACUCUGAUGGAATT against Ptpn13, inactive: 1.2; in that of GUGGCUAUCGGCACAACAUTT against Gpha2, inactive: 0.455.
Turning to GGAACUACCUCUUCAGACUTT against Sema5b, the z-score is inactive: -0.863.
Next, GUAGUAGUCCUAGGUCUACTT against Spag8: inactive: -0.284; GCCAACAAUUACGUAUCAATT against Papolg: inactive: -0.3.
“GGCCCUCAAACAGUGCAAATT against 1620401E04Rik”: the z-score was inactive: 1.23.
In the case of CCUCAUUGUUUUAUACCCUTT against Olfr1140 it was inactive: 0.748.
For CCCAACAAUGCUGCACAUGTT against H1foo, the z-score is inactive: -1.06.
In the case of GGUGACUAUGAAGAAAAAATT against F13a it was inactive: 0.531; in that of CCUUGCCUUUACUACCAGUTT against Olfr15, inactive: -0.924; in that of GGAGAAAGAGCAGAGUCUGTT against Cep2, inactive: -1.34.
Next, GGAGAAGAAGACCAAUGAGTT against Rabgef1: inactive: 1.38; “GCUUUAUAGGAACCUAAACTT against D430044G18Rik”: inactive: 0.629; CCUCCCAAUUCCAUUGGAATT against Serpinb3c: inactive: -0.801.
Next, GGAUUCCAGAACAAACACATT against Plekhb2: inactive: -0.979; GGCUUACUUCCAAAGACUUTT against Naalad2: inactive: 0.112.
As for GGGUGUACCUUAUGUAUUATT against Prpf4, the z-score was inactive: -1.05.
Next, GGAAACUGUUGAAUCUUGUTT against Smad5: inactive: 0.899.
In the case of “GCUCUAUCAAGCUGACGGGTT against 2610111M03Rik” it was inactive: -0.199; in that of “CCUUUACACCACUCUAUUUTT against 9130014G24”, inactive: -0.43.
In the case of GGUUUGUGCUCUUUAUUUGTT against BC011487 it was inactive: 0.621; in that of GCGAUUGGCCCAAAAAUGCTT against Olfr1151, inactive: -0.53; in that of GCCAGGUCUGAAGAACUGUTT against Rap1b, inactive: -0.522.
Turning to CGACAUAGCUACCAGUCUGTT against Indo, the z-score was inactive: -1.94.
Next, GGUUUGGCAGAAGUGCAUGTT against Npff: inactive: -0.195.
In the case of GGUCCCAUUCAGUGUGUGUTT against Cdk10, the z-score was inactive: -0.19.
Next, “CCCUGUUAUCCGAUUGGAUTT against C730040N12Rik”: inactive: -0.37; UGCCAUGAGUCAGCUUUUGTT against Olfr1301: inactive: 0.566.
Next, “GGUGAACAACUUUGUCAUCTT against 2610110G12Rik”: inactive: -0.361; GGAAGUUGGUUAUACUCGUTT against Wins2: inactive: -0.122; GCGUGCAACAUGUUCUGUATT against Wfdc13l1: inactive: -0.802.
In the case of “GCCUGAUACCUUGAAGGAATT against 1810019P04Rik” it was inactive: -0.461.
As for GCACAACCAAUUACGUGGCTT against Gpnmb, the z-score is inactive: 0.38.
In the case of “CCAACUACUAGAAUGUAUCTT against A830043J08Rik” it was inactive: -0.509; in that of “GGAACAGCCUAUGUGGUCUTT against 0610009D07Rik”, inactive: -2.91; in that of “CCGGUCAUCUUUCUAUUAUTT against 9530008L14Rik”, inactive: -0.162.
Next, CGGAUUACUUUGUAAAGAUTT against Il17rd: inactive: 0.122; GGUGAUGAUGAUGGGCAACTT against Cdkn2a: inactive: -1.79.
Next, GGAUGAGUUCUUCUUCGGCTT against D15Wsu75e: inactive: 0.55.
GGAACAUAGAUGCGUGUGGTT against Rprm: the z-score was inactive: 0.332.
On to “CCUUAGAGAGUAUGAUUAUTT against 4933405O20Rik”, for which the z-score is inactive: -1.11.
Next, GGGAGGUUCCUAUUGAAGGTT against Unc5d: inactive: -0.824; GGGUCAUUCUGUUACUCUUTT against Taar7a: inactive: 0.372; “GCCGACAUCUUUGCUCAGATT against 4632413C14Rik”: inactive: 1.01.
For the sequence GGGCUCAGAGACAAACUGUTT against Tnr, the z-score was inactive: -1.19.
In the case of GGGAAUAUGUGAAACAGACTT against Syk it was inactive: -1.61; in that of “CGAAGGACAAAAUAUCAGCTT against 4930517G15Rik”, inactive: -0.16.
On to CGAGGAGCCUGAAAUAUGGTT against Exosc2, for which the z-score was inactive: -1.84.
In the case of GGACUACUCUGCCAGAUGGTT against BC048651 it was inactive: -1.74; in that of “GGUCUUUUCAGAAUAAACUTT against 4930455C21Rik”, inactive: 0.694.
Next, GGAGAACGAGUUGUAUAGCTT against Dok2: inactive: -1.09; GCCGAUUGUCCUAUCUCCATT against Cmar: inactive: 0.475; GCAUGCUAGAAGCUAAAAATT against Golga3: inactive: 1.59.
As for GGAGAGAUGAUACUGUUGGTT against Olfr1295, the z-score was inactive: 0.0734.
In the case of GGAGAGAAACUGCGUGUAATT against Sla it was inactive: 1.3.
Next, GCAACUCAGCUGUUGUGAGTT against Ifitm2: inactive: -1.83; GCCCAAACAUAUUAAACUUTT against Ubap2: inactive: -1.17; CCCGAACAGAGGAUCGAAATT against Cxadr: inactive: -0.162.
Consider GGGCUUAUCUAUGUCCUUCTT against Olfr59, for which the z-score was inactive: -0.589.
Take CCAUCAAGAAUGUCCGUGATT against Pkm2: the z-score is inactive: 1.12.
In the case of CCGUGAUAACAACAUUUGUTT against Olfr750 it was inactive: -0.368; in that of GCAAGCUUAUAUGUUUGACTT against Ggh, inactive: 0.891.
In the case of GGCUGAGAUUAUCACUGUCTT against D11Wsu68e it was inactive: -0.19.
Next, GGCAUCUUAUGGCCUAAAATT against Rnf31: inactive: -0.542.
Consider “GGAAUCAGAUACAAAGGAGTT against 1810057E01Rik”, for which the z-score is inactive: -1.06.
In the case of “GGAGGCCCUCAUGAAACGUTT against 1500010J02Rik” it was inactive: 0.181; in that of GGACAGAAUCCUCUCCAGGTT against Tas1r1, inactive: -1.85; in that of CGGAAUGUACACCUACUUUTT against Gm50, inactive: 0.788.
Next, GGAUCUCCGGACAUUUAAGTT against Gm466: inactive: 0.998; GGAACUGGUGAAGCUCACUTT against BC002236: inactive: 1.17.
